Measurements reported in PubChem BioAssay AID1259254 (NCATS, 2017).
Assay: 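Gene knock-downs that lead to re-replication, shown by excess G2 DNA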 (primary screen). System: human HCT116 colorectal cancer cells. Knock-down reagent: single siRNA against human genes. Timing: 3 days. Read-out: 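Imaged Hoechst DNA stain sorts each cell into a cycle phase by DNA amount; per plate, G2 fraction set to 0% for non-targeting and 100% for GMNN siRNA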. Direction: G2 robust z-score and G2 cells, % of GMNN control: higher = more G2 cells, more excess DNA replication. Rule for the call: 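An siRNA counts as active if its G2 robust z-score lies at least 5 MADs above the screen median; here such calls match roughly 38% of GMNN control or more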.
Here is a random part of about 59,000 reagents. In the full data, about 1,550 (2.6%) are marked active. 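G2 share is only a proxy for re-replication; each gene was hit by three separate siRNAs, and active genes were retested.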 Entries without a mark were called inactive. Further read-outs or replicates are left out here. Not stated in the record: the amount of reagent.

{"target": "ZNF576", "PubChem SID": "SID160748759", "G2 robust z-score": -0.547, "G2 cells, % of GMNN control": -0.882}
{"target": "ZNF576", "PubChem SID": "SID160748760", "G2 robust z-score": -0.687, "G2 cells, % of GMNN control": -1.86}
{"target": "ZNF576", "PubChem SID": "SID160748761", "G2 robust z-score": 0.181, "G2 cells, % of GMNN control": 4.24}
{"target": "CLEC1A", "PubChem SID": "SID160740454", "G2 robust z-score": -1.28, "G2 cells, % of GMNN control": -6.01}
{"target": "CLEC1A", "PubChem SID": "SID160740455", "G2 robust z-score": 0.676, "G2 cells, % of GMNN control": 7.72}
{"target": "CLEC1A", "PubChem SID": "SID160740456", "G2 robust z-score": 0.968, "G2 cells, % of GMNN control": 9.78}

The list goes on; the last 2 above are carried over.
{"target": "CLEC1A", "PubChem SID": "SID160740455", "G2 robust z-score": 0.676, "G2 cells, % of GMNN control": 7.72}
{"target": "CLEC1A", "PubChem SID": "SID160740456", "G2 robust z-score": 0.968, "G2 cells, % of GMNN control": 9.78}
{"target": "TGM4", "PubChem SID": "SID160718004", "G2 robust z-score": -0.769, "G2 cells, % of GMNN control": -2.44}
{"target": "TGM4", "PubChem SID": "SID160718005", "G2 robust z-score": -0.0803, "G2 cells, % of GMNN control": 2.4}
{"target": "TGM4", "PubChem SID": "SID160718006", "G2 robust z-score": -0.232, "G2 cells, % of GMNN control": 1.34}
{"target": "DPH1", "PubChem SID": "SID160755914", "G2 robust z-score": -0.832, "G2 cells, % of GMNN control": -2.89}
{"target": "DPH1", "PubChem SID": "SID160755925", "G2 robust z-score": 0.822, "G2 cells, % of GMNN control": 8.75}
{"target": "DPH1", "PubChem SID": "SID160755937", "G2 robust z-score": -0.494, "G2 cells, % of GMNN control": -0.509}
